Experimental data: article PMC10163288
The other results are listed elsewhere or left out.

B1: il10ra_site1_sap_17_mot_HHH_b2_00479_000000091_0001_1_12_H_._HHH_b2_01810_0001_0000100002_0000001_0_0001_af2pred_dldesign_0_af2pred (protein)
chain: SSSSSAKELVDQAIRAAKLLWEAGEPEEAQKALDTAKAIAENAKDPELLKKVEEVKEELLKSSSS
B2: il10ra_site1_normal_mot_HHH_b1_02809_af2_000000277_0001_40_57_H_._HHH_b1_06102_0001_0000800008_0000001_1 (protein)
chain: SSSSDEEIRRKIRLALQFAKALLEAGDPEAARRIVRAALQVARKDGDPIAEEVEELLEEINSSSS
B3: il10ra_site1_sap_26_mot_HHH_b2_04681_000000155_0001_43_57_H_._HHH_b2_02614_0001_0000500019_0000001_0_0001 (protein)
chain: SSSEEEVEELVEEVRRVAEEVGDPEARVSARFHASLAEWALERNDEEALKQVSLALRIFLEVFSS
B4: il10ra_site1_sap_23_mot_0eddeacbb14b769e73e254714f31e2f9_0001_af2_000000127_0001_37_51_H_._HHH_b1_00538_0001_0000500024_0000001_0_0001 (protein)
chain: SSSSSEEEEKAKELIELLEELAKEGDPEEFNRVALEAVRLVLELGDAELLRELWELFKSVSSSSS
B5: il10ra_site1_normal_mot_8756ee2cf497b5429c717dfc0c0bcfd6_0001_000000186_0001_1_13_H_._HHH_b2_06836_af2_0001_0000500019_0000001_0 (protein)
chain: SSSSTEAQEVAELLREVVELARNGNPEEAREVLREAEEIAKEGNNDVLKVQVEYLARLIEGSSSS
B6: il10ra_site1_sap_12_mot_HHH_b2_07442_000000239_0001_40_54_H_._HHH_b1_05408_0001_0000100001_0000002_0_0001 (protein)
chain: SSSSSSDIEEEVKELLEEAKHVSADEAFELFKEAIELAVEGRDPELLREVMEVLREWLNSSSSSS
B7: il10ra_site1_normal_mot_HHH_b1_02997_000000220_0001_39_52_H_._HHH_b1_06600_0001_0000400038_0000001_0_af2pred_0001 (protein)
chain: SSSSSKREEAIELLREAAELLADGNPEEAEELLEEARRLAEEANNLILRIAIEFLLEQLESSSSS
B8: il10ra_site1_sap_19_mot_HHH_b1_04015_af2_000000074_0001_1_17_H_._HHH_b1_08661_af2_0001_0000100003_0000001_0_0001_af2pred_dldesign_0_af2pred (protein)
chain: SSSREELWKAMVEVYKKATSSGDPEVIKKAEELLKRAATALAQEDEEAIAEVLKELKAFIEEVSS
B9: il10ra_site1_sap_23_mot_HHH_b2_02354_af2_000000157_0001_40_56_H_._HHH_b2_04501_af2_0001_0000800021_0000001_0_0001 (protein)
chain: SSSSDELEELLEELEEALERGDQELFAELALEVVHLAWQNGDEEVLRRVWELVEEFRRAHSSSSS
B10: il10ra_site1_normal_mot_HHH_b2_00475_000000107_0001_44_57_H_._HHH_b1_03844_0001_0000100010_0000001_0_af2pred_0001 (protein)
chain: SSSSDEERVVELLKRALELARNGNPEEAEELLEEAEQIARENNDEELRERIELAERLVRQESSSS
B11: il10ra_site1_sap_21_mot_HHH_b1_06789_af2_000000041_0001_1_20_H_._HHH_b1_00764_0001_0000200005_0000001_0_0001 (protein)
chain: SSSSDEDEELLEAAKRLIEQALKWGDPEAAKILIWSAKFLAEELGDEETQEELEELEKEVDSSSS
B12: il10ra_site1_normal_mot_HHH_b2_04275_000000272_0001_20_36_H_._HHH_b1_03080_0001_0000100004_0000001_1 (protein)
chain: SSSSDSQELYELLEKASELLHRGNPEEAKKVLEEAEEIAREANNEVLLFTIEFLLELVERHSSSS
B13: il10ra_site1_sap_16_mot_HHH_b2_03220_af2_000000223_0001_23_40_H_._HHH_b1_00394_0001_0000100012_0000002_0_0001 (protein)
chain: SSSSSTIEWSVKFVLEVAEMNAREGDPERARYQLEALLEHLRQAGNEELAEEVEHLLEELSSSSS
B14: il10ra_site1_sap_22_mot_HHH_b2_00952_af2_000000228_0001_1_18_H_._HHH_b2_08075_af2_0001_0000100004_0000001_0_0001_af2pred_0001 (protein)
chain: SSSDEEEALERLLKAVERLIEQGDDELAKLSVHQVLHLAKFAGDEEIERRARELLKELEELSSSS
B15: il10ra_site1_normal_mot_HHH_b1_06994_000000193_0001_40_55_H_._HHH_b1_03771_af2_0001_0000300016_0000002_0 (protein)
chain: SSSSDEEKELLEAAERLIEQALENGNPETAKFLILAAKILAEELGDEETLKKLEELEEEVDSSSS
B16: il10ra_site1_sap_10_mot_HHH_b2_03438_af2_000000049_0001_18_34_H_._HHH_b2_06719_0001_0000400025_0000002_0_0001_af2pred_0001 (protein)
chain: SSSSSEEDIERAVRRLLEAAKLIPDPELRKLTLRFARFAAEENNDEELEKEVEEVEKRLESSSSS
B17: il10ra_site1_sap_21_mot_HHH_b2_02053_af2_000000006_0001_3_19_H_._HHH_b1_03521_0001_0000200013_0000001_1_0001 (protein)
chain: SSSSDERAQEALELSKEAFRAALRGNPEEAQELVEEALKVAEEAGDERLAEIIRSLLEAIRSSSS
B18: il10ra_site1_sap_12_mot_HHH_b1_05084_000000041_0001_41_57_H_._HHH_b1_01386_0001_0000100008_0000001_0_0001_af2pred_0001 (protein)
chain: SSSSSEEYAKRVAELSMRASAIPDEEERRKILEEAEEVAREGNDPRLELSVKVLIEFLERSSSSS
B19: il10ra_site1_sap_19_mot_HHH_b2_03425_000000200_0001_22_39_H_._HHH_b1_06430_0001_0000100004_0000001_0_0001_af2pred_dldesign_0_af2pred (protein)
chain: SSSSDIEALLKELARLSHEVSEEQRAKLFDAMVEAYRLYQQGKPEEARRVLEEAIAEALESSSSS
B20: il10ra_site1_normal_mot_HHH_b2_07540_000000184_0001_1_15_H_._HHH_b2_02537_0001_0000100004_0000001_0 (protein)
chain: SSSSDEEYEEVKRLIEEITELLRRGDPEEARRLLEELEELAEETNNPAARFSVRALERAINSSSS
B21: il10ra_site1_normal_mot_HHH_b2_00984_000000042_0001_1_20_H_._ems_p1-15H-GBL-16H-GABBL-16H_0120_0001_0001_0001_0001_0000500019_0000002_0 (protein)
chain: SSSSSDVARLAAEAARLAFRKGDQEALRELWELIQAYARGEQPEEEVEEIVEEILERLRSSSSSS
B22: il10ra_site1_sap_8_mot_HHH_b1_07768_000000240_0001_18_35_H_._HHH_b1_06381_af2_0001_0000300007_0000002_0_0001 (protein)
chain: SSSSSEDNEELFELSKRAAELASEGNPEEARRLLEEAEELAEEAGNMLFLWQIRFLLKRISSSSS
B23: il10ra_site1_sap_13_mot_HHH_b2_07596_000000080_0001_23_39_H_._HHH_b1_03720_0001_0000200022_0000001_0_0001_af2pred_dldesign_0_af2pred (protein)
chain: SSSSSDPALRARVEALLEEARKLKDPEKAAEVLREASRLAWELGDSELFERIKEVANELLSSSSS
B24: il10ra_site1_sap_20_mot_HHH_b1_02997_000000220_0001_39_52_H_._HHH_b1_01700_0001_0000400036_0000002_0_0001 (protein)
chain: SSSSDEARRELFELSRRAAEALANGNPEEARKILEEAEELAEELGDRVVLFSIRHLLKAVNSSSS
B25: il10ra_site1_normal_mot_HHH_b1_00456_000000263_0001_1_17_H_._ems_3hM_3122_af2_0001_0000100004_0000001_0_af2pred_0001 (protein)
chain: SSSAAEVWHILVRAYTLALRLNDEELREEVKEVAQEVTELLLEGDEEEARRLAEELLERVEKKSS
B26: il10ra_site1_sap_20_mot_HHH_b1_06256_000000091_0001_42_58_H_._HHH_b1_00504_0001_0000100004_0000002_0_0001 (protein)
chain: SSSSSEEERELEELIERAKELLERGNPQEAIEVLARAVRLAFELGDPEALHEIWELVERQKSSSS
B27: il10ra_site1_normal_mot_8756ee2cf497b5429c717dfc0c0bcfd6_0001_000000186_0001_1_13_H_._HHH_b2_04339_af2_0001_0000100002_0000002_0_af2pred_0001 (protein)
chain: SSSSSDLEELVKLLRRIIELLADGNPEEAEELAEEALKLAEELNNEVARAILEFLRERAGSSSSS
B28: il10ra_site1_normal_mot_HHH_b1_05860_000000142_0001_1_19_H_._HHH_b2_03301_0001_0000100010_0000002_0_af2pred_0001 (protein)
chain: SSSSSERERVVKLLREAAELLRKGNPEEAREVLEEARELIEEAGNEVFEFILRLLERDLESSSSS
B29: il10ra_site1_sap_28_mot_HHH_b2_00441_000000147_0001_1_18_H_._HHH_b2_05319_0001_0000200013_0000001_0_0001 (protein)
chain: TVEHVLRKFAEAAVKGDESAQRILKVIVELAKTDPQYRQALERLIEILEELGDPELAEELEELLK
B30: il10ra_site1_normal_mot_HHH_b2_04912_000000028_0001_1_20_H_._HHH_b2_01396_0001_0000200033_0000001_0 (protein)
chain: SSSSDHEEVLELVLEALRLALRGDPEEAEKVLEEVLRLAEELGDEKLVEIIRDLLEALRDGSSSS
B31: il10ra_site1_normal_mot_7d538683ae38ff56261eb02f12605454_0001_af2_000000062_0001_54_65_H_._HHH_b1_06236_0001_0000100010_0000001_0 (protein)
chain: SSSSSEEEEEAEELLIEVAELFISGNPEEARRLLEEVRELVEKIGDPHLRAAVRIYEDAIKSSSS
B32: il10ra_site1_normal_mot_HHH_b2_06857_af2_000000179_0001_42_54_H_._HHH_b1_07795_af2_0001_0000100003_0000001_0_af2pred_dldesign_0_af2pred (protein)
chain: SSSSSDIEKVVKLIKEMAELASEGKKEEFEKTYNEALALAKKLGDEILVYTIEYLKERGLSSSSS
B33: il10ra_site1_sap_28_mot_HHH_b2_06311_000000217_0001_1_16_H_._HHH_b2_07909_af2_0001_0000600027_0000001_0_0001 (protein)
chain: SSSSSDAHELFELSREAAELARTDPEKAEEVLEEAIEIAERAGNQNFLVNLRYLLRRIENSSSSS
B34: il10ra_site1_sap_24_mot_HHH_b1_00999_000000080_0001_41_55_H_._HHH_b1_08417_0001_0000300009_0000002_0_0001_af2pred_0001 (protein)
chain: SSSDDEEELRLAAEIVARLILEFNLTQEQAVELLRVAYELLRRGVSEEEIEEILKEVAEELGSSS
B35: il10ra_site1_sap_25_mot_HHH_b1_07286_af2_000000054_0001_1_19_H_._HHH_b2_06366_0001_0000400028_0000001_0_0001_af2pred_0001 (protein)
chain: SSSSSSEEVREILRLLREAHEIDDPEEREEVLEEAQRLAEEAGNELLLFVIEYLLEIVRQSSSSS
B36: il10ra_site1_normal_mot_HHH_b1_00999_000000080_0001_41_55_H_._HHH_b1_08027_af2_0001_0000500028_0000003_0 (protein)
chain: SSSSSEEELEELEKQVEKLIEEGNLEEALRVIAEAVQLAMELGDQETLQELWRLVQRIGRLSSSS
B37: il10ra_site1_normal_mot_HHH_b2_04912_000000028_0001_1_20_H_._HHH_b2_06521_af2_0001_0000400041_0000001_0 (protein)
chain: SSSSSDEQEELLELLIRAFRLALRGNPEEARELLEEAEHLAEKLGDERARENVEELLQALSSSSS

biological target: il10ra, Q13651; experiment: yeast display titration

Apparent Kd, inactive:
B1 no binding seen
B2 no binding seen
B3 no binding seen
B4 no binding seen
B5 no binding seen
B6 no binding seen
B7 no binding seen
B8 no binding seen
B9 no binding seen
B10 no binding seen
B11 no binding seen
B12 no binding seen
B13 no binding seen
B14 no binding seen
B15 no binding seen
B16 no binding seen
B17 no binding seen
B18 no binding seen
B19 no binding seen
B20 no binding seen
B21 no binding seen
B22 no binding seen
B23 no binding seen
B24 no binding seen
B25 no binding seen
B26 no binding seen
B27 no binding seen
B28 no binding seen
B29 no binding seen
B30 no binding seen
B31 no binding seen
B32 no binding seen
B33 no binding seen
B34 no binding seen
B35 no binding seen
B36 no binding seen
B37 no binding seen

2 records picked at random from those above, as already listed:
Apparent Kd, inactive:
B5 no binding seen
B31 no binding seen
